Results reported in PubChem BioAssay AID504327 (National Center for Advancing Translational Sciences (NCATS), 2011).
About 820 (0.21%) of roughly 390,000 compounds were called active. Inconclusive means that the source gave no clear call. Such entries were picked first, then a sample of the others. Calls come from the whole dose curve; as a rule, active = well fitted inhibition curve with a large enough effect; inconclusive = small, poorly fitted or top-dose-only effect, or another doubt; inactive = no such curve, though single readings can be large or run the other way. Potencies of inconclusive entries are doubtful fits and often do not repeat.

By UniProt entry, the sequences of proteins in these tests, tags left out.
UniProt Q92830, whole entry, looked up: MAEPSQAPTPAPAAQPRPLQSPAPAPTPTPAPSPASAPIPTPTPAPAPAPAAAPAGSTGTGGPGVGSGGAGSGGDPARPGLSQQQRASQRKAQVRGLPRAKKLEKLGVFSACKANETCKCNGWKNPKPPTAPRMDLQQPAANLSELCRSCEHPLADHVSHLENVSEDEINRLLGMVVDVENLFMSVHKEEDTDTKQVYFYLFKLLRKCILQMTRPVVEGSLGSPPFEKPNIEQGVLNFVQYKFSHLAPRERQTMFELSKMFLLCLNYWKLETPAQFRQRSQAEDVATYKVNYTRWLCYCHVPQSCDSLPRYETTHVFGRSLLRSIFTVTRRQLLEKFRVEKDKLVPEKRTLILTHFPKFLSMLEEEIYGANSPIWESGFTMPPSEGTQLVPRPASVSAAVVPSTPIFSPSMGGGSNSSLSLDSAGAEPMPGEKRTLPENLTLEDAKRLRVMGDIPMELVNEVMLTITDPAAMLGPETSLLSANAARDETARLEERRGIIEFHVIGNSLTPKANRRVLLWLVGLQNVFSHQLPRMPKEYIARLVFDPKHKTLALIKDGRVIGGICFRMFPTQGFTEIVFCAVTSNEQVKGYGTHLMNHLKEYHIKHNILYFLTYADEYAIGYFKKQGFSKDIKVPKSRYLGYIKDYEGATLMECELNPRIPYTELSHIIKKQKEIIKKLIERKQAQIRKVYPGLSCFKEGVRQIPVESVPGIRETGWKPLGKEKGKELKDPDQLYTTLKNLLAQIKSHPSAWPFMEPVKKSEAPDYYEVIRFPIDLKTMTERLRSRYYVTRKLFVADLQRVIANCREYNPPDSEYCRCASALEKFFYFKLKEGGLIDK

The compounds below were run against Histone acetyltransferase KAT2A (Homo sapiens) (UniProt Q92830) (assay: qHTS Assay for Inhibitors of GCN5L2). Conditions: GCN5L2 HAT assay, ThioGlo1 CoA-SH fluorescence; activity change, negative = inhibition: at 58.9 µM (top of the series) unless noted.
Procedure, shortened: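 GCN5L2 (20nM final) in 50mM HEPES, 0.1mM EDTA pH 7.5, 0.01% Tween-20 was preincubated 15 min at room temperature with compound, then given ThioGlo1 (50uM), H3(1-25) peptide (75uM) and acetyl-CoA (70uM); CoA-thiol fluorescence (Ex340/Em540) was read at 0 and 20 min.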
% is set by controls: 0 for no effect and ±100 for the full control effect; potency is the fitted concentration of half-maximal effect.

| Compound | Potency | activity change, negative = inhibition |
| --- | --- | --- |
| Clc1ccc(Cc2ccc(SCc3ccccc3)nn2)c(Cl)c1 | inconclusive: 0.141 µM [inhibitor, full curve, poor fit] |  |
| O=C(CNCc1ccccc1)NC1C2CC3CC(C2)CC1C3 (stereo not given) | inconclusive: 39.8 µM [inhibitor, single point] |  |
| CNC(=O)C1CC(=O)N/C(=N/N=C(\C)c2cccs2)S1 (stereo not given) | inconclusive: 2.82 µM [inhibitor, single point] |  |
| O=C(NC(=S)Nc1ccc(Oc2ccc(Cl)cc2)cc1)c1ccccc1 | inconclusive: 6.31 µM [inhibitor, single point] |  |
| COc1ccc(N2Cc3cccc(C(=O)O)c3C2=O)cc1 | inconclusive: 28.2 µM [inhibitor, partial curve, poor fit] |  |
| Cc1ccc(-n2[nH]c(C)c(/C=N/c3ccccn3)c2=O)cc1 |  | inactive: 3.12% |
| CC(C)c1ccc(C2CC(=O)Nc3cc4c(cc32)OCCO4)cc1 (stereo not given) |  | inactive: 0.987% |
| COC(=O)c1c(-c2ccc(C)cc2)csc1NC(=O)Cc1ccc(OC)c(OC)c1 | inconclusive: 25.1 µM [inhibitor, partial curve, poor fit] |  |
| CC(=O)c1cccc(NC(=O)C(C)OC(=O)CCN=C2NS(=O)(=O)c3ccccc32)c1 (stereo not given) | inconclusive: 5.62 µM [inhibitor, single point] |  |
| CCOC(=O)CC1C(=O)NCCN1C(=O)c1ccc(C)cc1 (stereo not given) |  | inactive: -2.26% |
| CCOC(=O)c1cc(-c2ccc(/C=C3/C(=O)NC(=O)C(C#N)=C3C)o2)ccc1Cl | inconclusive: 31.6 µM [inhibitor, single point] |  |
| N[C@@H](Cc1ccccc1)c1nnc(SC/C=C/c2ccccc2)o1 | inconclusive: 0.1 µM [inhibitor, full curve, poor fit] |  |
| O=C1C=CC2C(c3ccc4c(c3)OCO4)CC1N2Cc1ccccc1 (stereo not given) |  | inactive: 2.74% |
| COC(=O)c1ccccc1CSc1nsc(C)c1C#N |  | inactive: -0.935% |
| CC1(c2ccc(O)cc2)NC(=O)N(c2ccccc2)N1 (stereo not given) |  | inactive: -8.79% |
| CCc1cc(=O)oc2c(CN3CCN(C)CC3)c(O)ccc12 | inconclusive: 22.4 µM [inhibitor, single point] |  |
| CCC1S/C(=N/N=C/c2ccco2)N(Cc2ccc(F)cc2)C1=O (stereo not given) | inconclusive: 0.355 µM [inhibitor, full curve] |  |
| Cc1ccc(-n2c3nc(=O)n(C)c(=O)c-3cc3ccccc32)c(C)c1 | inconclusive: 39.8 µM [inhibitor, single point] |  |
| CCOC(=O)c1c(C)n(-c2ccc(C)cc2)c2ccc(OCC(O)CNCCCO)cc12 (stereo not given) |  | inactive: -4.82% |
| COc1cc(C(=O)COC(=O)c2ccncc2)cc(OC)c1OC |  | inactive: -3.45% |
| CCOc1ccc(N(Cc2cc3cc(C)ccc3[nH]c2=O)C(=O)COC)cc1 | inconclusive: 17.8 µM [inhibitor, partial curve] |  |
| CC(=O)Nc1ccc(NC(=O)CC2Nc3cccc4cccc(c34)NC2=O)cc1 (stereo not given) |  | inactive: 18.2% |
| N#Cc1c(NC(=O)c2ccc(Cn3cc(Br)cn3)o2)sc2c1CCCCCC2 | inconclusive: 20 µM [inhibitor, partial curve] |  |

Reformatted bar-delimited: entries from further up.
Compound | Potency | activity change, negative = inhibition
COc1ccc(N2Cc3cccc(C(=O)O)c3C2=O)cc1 | inconclusive: 28.2 µM [inhibitor, partial curve, poor fit] | 
Cc1ccc(-n2[nH]c(C)c(/C=N/c3ccccn3)c2=O)cc1 |  | inactive: 3.12%
CC(C)c1ccc(C2CC(=O)Nc3cc4c(cc32)OCCO4)cc1 (stereo not given) |  | inactive: 0.987%
COC(=O)c1c(-c2ccc(C)cc2)csc1NC(=O)Cc1ccc(OC)c(OC)c1 | inconclusive: 25.1 µM [inhibitor, partial curve, poor fit] | 
CC(=O)c1cccc(NC(=O)C(C)OC(=O)CCN=C2NS(=O)(=O)c3ccccc32)c1 (stereo not given) | inconclusive: 5.62 µM [inhibitor, single point] | 
CCOC(=O)CC1C(=O)NCCN1C(=O)c1ccc(C)cc1 (stereo not given) |  | inactive: -2.26%
CCOC(=O)c1cc(-c2ccc(/C=C3/C(=O)NC(=O)C(C#N)=C3C)o2)ccc1Cl | inconclusive: 31.6 µM [inhibitor, single point] | 
N[C@@H](Cc1ccccc1)c1nnc(SC/C=C/c2ccccc2)o1 | inconclusive: 0.1 µM [inhibitor, full curve, poor fit] | 
O=C1C=CC2C(c3ccc4c(c3)OCO4)CC1N2Cc1ccccc1 (stereo not given) |  | inactive: 2.74%
COC(=O)c1ccccc1CSc1nsc(C)c1C#N |  | inactive: -0.935%
CC1(c2ccc(O)cc2)NC(=O)N(c2ccccc2)N1 (stereo not given) |  | inactive: -8.79%
CCc1cc(=O)oc2c(CN3CCN(C)CC3)c(O)ccc12 | inconclusive: 22.4 µM [inhibitor, single point] | 
CCC1S/C(=N/N=C/c2ccco2)N(Cc2ccc(F)cc2)C1=O (stereo not given) | inconclusive: 0.355 µM [inhibitor, full curve] | 

(next part)

| Compound | Potency | activity change, negative = inhibition |
| --- | --- | --- |
| COCCc1ccc(OCC(O)CNC(C)C)cc1 (stereo not given) | inconclusive: 39.8 µM [inhibitor, single point] |  |
| CNC(=O)c1ccc(-c2sc3nc(N4CCOCC4)c4c(c3c2N)CCCC4)o1 | inconclusive: 31.6 µM [inhibitor, single point] |  |
| CCOC(=O)N1CCC(NC(=O)c2ccc3c(c2)sc2nc(-c4cccc(OC)c4)cn23)CC1 |  | inactive: -9.74% |
| CNC(=S)N1CCN(c2ccc([N+](=O)[O-])cc2)CC1 |  | inactive: -2.86% |
| Cc1nnc(SCC(=O)NCc2ccco2)[nH]c1=O | inconclusive: 39.8 µM [inhibitor, single point] |  |
| Cc1ccc(NC(=O)CN2c3cccc4cccc(c34)S2(=O)=O)cc1S(=O)(=O)N1CCOCC1 |  | inactive: -5.88% |
| Nc1ccc(C(=O)N/N=C\c2cc(N=Nc3cccc4ccccc34)ccc2O)cc1 |  | inactive: -12.8% |
| COc1ccnc(CS(=O)c2nc3ccc(OC(F)F)cc3[nH]2)c1OC (stereo not given) | inconclusive: 31.6 µM [inhibitor, single point] |  |
| CCN1C(=O)/C(=C2\SC(=S)N(c3c(C)n(C)n(-c4ccccc4)c3=O)C2=O)c2ccccc21 |  | inactive: -3.12% |
| COC(=O)C1=C(C)NC2=C(C(=O)CCC2)C1c1cccc(C)n1 (stereo not given) | inconclusive: 7.08 µM [inhibitor, single point] |  |
| Cn1c(O)c(N=Nc2nc(-c3ccccc3)cs2)c2ccccc21 |  | inactive: 1.02% |
| CCOc1ccccc1CNC(=O)C1Cc2cc(S(=O)(=O)N3CCCCC3)ccc2N1C(C)=O (stereo not given) | inconclusive: 39.8 µM [inhibitor, single point] |  |
| COc1ccc2nc(NC(=O)c3cccc(S(=O)(=O)N4CCOCC4)c3)sc2c1 | inconclusive: 20 µM [inhibitor, single point] |  |
| Cc1c(C(=O)N2CCC(n3nccc3NC(=O)C3CC3)CC2)[nH]c2ccc(Cl)cc12 | inconclusive: 0.708 µM [inhibitor, full curve, poor fit] |  |
| CCOc1ccccc1C(=O)Nc1cccc(-c2ccc(N3CCOCC3)nn2)c1 | inconclusive: 15.8 µM [inhibitor, partial curve, poor fit] |  |
| CS(=O)(=O)Nc1ccc(C(=O)CC(=O)Nc2ccc([N+](=O)[O-])cc2)cc1 | inconclusive: 39.8 µM [inhibitor, single point] |  |
| CC(C)(C)OC(=O)NCCCC[C@H](NC(=O)c1[nH]cnc1C(=O)Nc1ccc(Cl)cc1)C(=O)OC(C)(C)C | inconclusive: 17.8 µM [inhibitor, single point] |  |
| COc1ccc(-c2ncn(CCC#N)c2[N+](=O)[O-])cc1 | inconclusive: 7.08 µM [inhibitor, full curve, poor fit] |  |
| CN(C)/C=N/c1nc2nccc(-c3ccccn3)n2n1 | inconclusive: 39.8 µM [inhibitor, single point] |  |
| Cc1ccc(-n2c(N)c(C(N)=O)sc2=S)cc1 |  | inconclusive: -54.2% [inhibitor] |
| Cn1c(=O)c(/C=C/c2ccc(F)cc2)nc2ccccc21 |  | inactive: -11.6% |
| COc1cc(CN(C)C)cc(C=O)c1O | inconclusive: 28.2 µM [inhibitor, single point] |  |
